PubChem BioAssay AID1508588, Peter MacCallum Cancer Centre – 2020

Screen: 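Which gene losses make BRAF-mutant melanoma cells more responsive to vemurafenib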 (primary screen)
Cells: human WM266.4 melanoma cells (BRAF V600 mutant)
Reagents: siRNA pool against human genes, 40 nM
Timing: 96 h from transfection to read-out
Challenge: vemurafenib 300 nM (about IC25), added 48 h after transfection, for 48 h; comparison arm got DMSO vehicle only
Read-out: 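Ratios to non-targeting siRNA for cell gain, counted as DAPI nuclei after minus before drug and averaged over two replicates, and for absorbance-read medium lactate per cell; both binned into fold-change classes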
Scale: cell gain with vemurafenib: higher = more cell gain than with non-targeting siRNA; lactate per cell with vemurafenib: higher = more lactate made per cell
Call rule: 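Enhancement is called by pairing each knock-down's vehicle-arm and drug-arm fold-change classes for viability or glycolysis; which class combinations qualify is not given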
Calls: active = enhances vemurafenib effect; inactive = no enhancement seen
The deposit covers about 18,000 reagents; below is a random part of them. In the full data, 790 (4.4%) are marked active. 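Calls rest on a combination of fold-change classes in drug and vehicle arms, not all shown here.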

target gene | cell gain with vemurafenib | lactate per cell with vemurafenib | Call
CLEC4F (C-type lectin domain family 4 member F) | 0.25 | 1.35 | inactive
PARD6G (par-6 family cell polarity regulator gamma) | 0.54 | 0.87 | inactive
GAR1 (GAR1 ribonucleoprotein) | 0.19 | 2.03 | inactive
SH3BP5 (SH3 domain binding protein 5) | 0.73 | 1.04 | inactive
ZBTB2 (zinc finger and BTB domain containing 2) | -0.02 | 2.04 | inactive
TSPY2 (testis specific protein Y-linked 2) | 0.12 | 1.52 | inactive
RSL1D1 (ribosomal L1 domain containing 1) | 0.39 | 1.88 | inactive
APOD (apolipoprotein D) | 1.06 | 1.17 | inactive
VSX2 (visual system homeobox 2) | 0.72 | 1.07 | inactive
RBAK (RB associated KRAB zinc finger) | 0.74 | 1.17 | inactive
PCDH8 (protocadherin 8) | 0.61 | 0.75 | inactive
CTSZ (cathepsin Z) | 0.86 | 1.32 | inactive
NFYC (nuclear transcription factor Y subunit gamma) | 0.42 | 1.31 | inactive
TBPL1 (TATA-box binding protein like 1) | 0.57 | 1.23 | inactive
GLCE (glucuronic acid epimerase) | 0.62 | 0.64 | inactive
CCDC127 (coiled-coil domain containing 127) | 0.73 | 0.93 | inactive
SKAP2 (src kinase associated phosphoprotein 2) | 0.95 | 0.36 | inactive
MORC1 (MORC family CW-type zinc finger 1) | 0 | 3.08 | inactive
GARIN1A (golgi associated RAB2 interactor 1A) | 0.13 | 0.68 | active
NUP210L (nucleoporin 210 like) | 0.67 | 0.43 | inactive
MED13 (mediator complex subunit 13) | 0.7 | 0.7 | inactive
GRHL3 (grainyhead like transcription factor 3) | 0.8 | 0.24 | inactive
KATNB1 (katanin regulatory subunit B1) | 0.55 | 0.4 | active
IL1B (interleukin 1 beta) | 0.13 | 2.8 | inactive
SNRNP25 (small nuclear ribonucleoprotein U11/U12 subunit 25) | 0.18 | 1.42 | inactive
MRPL53 (mitochondrial ribosomal protein L53) | 0.49 | 0.88 | inactive
KRTAP6-3 (keratin associated protein 6-3) | 0.76 | 0.62 | inactive
ZFPL1 (zinc finger protein like 1) | 0.4 | 0.9 | inactive
EIF1AX (eukaryotic translation initiation factor 1A X-linked) | 0.4 | 0.8 | inactive
C1orf198 (chromosome 1 open reading frame 198) | 0.38 | 0.89 | inactive
GBP6 (guanylate binding protein family member 6) | 0.66 | 0.96 | inactive
HRH4 (histamine receptor H4) | 0.85 | 0.8 | inactive
SH2D3A (SH2 domain containing 3A) | 0.82 | 1.23 | inactive
NAT2 (N-acetyltransferase 2) | 0.6 | 0.87 | inactive
FANCB (FA complementation group B) | 0.18 | 2.09 | inactive
MYOC (myocilin) | 0.59 | 1.29 | inactive
SLITRK2 (SLIT and NTRK like family member 2) | 0.93 | 0.36 | inactive
LCTL (lactase like) | 0.56 | 1.13 | inactive
ARR3 (arrestin 3) | 0.58 | 1.69 | inactive
GFI1B (growth factor independent 1B transcriptional repressor) | 0.57 | 1.12 | inactive
CHMP6 (charged multivesicular body protein 6) | 0.64 | 1.2 | inactive
ZIC3 (Zic family zinc finger 3) | 0.73 | 0.89 | inactive
KLF13 (KLF transcription factor 13) | 0.97 | 0.8 | inactive
AP3D1 (adaptor related protein complex 3 subunit delta 1) | 1.05 | 0.76 | inactive
TMC7 (transmembrane channel like 7) | 0.67 | 0.55 | inactive
ACTRT1 (actin related protein T1) | 0.18 | 1.46 | inactive
INTS11 (integrator complex subunit 11) | 0.02 | 0.96 | inactive
TDP2 (tyrosyl-DNA phosphodiesterase 2) | 1.2 | 0.82 | inactive
TNPO2 (transportin 2) | 0.41 | 0.62 | inactive
CPED1 (cadherin like and PC-esterase domain containing 1) | 0.37 | 2.76 | inactive
TXLNA (taxilin alpha) | 0.85 | 0.67 | inactive
STAG3L2 (STAG3 cohesin complex component like 2 (pseudogene)) | 0.74 | 1.08 | inactive
RRAD | -0.13 | 1.45 | inactive
DNAAF10 (dynein axonemal assembly factor 10) | 1.16 | 0.56 | inactive
ANO3 (anoctamin 3) | 0.59 | 0.4 | inactive
SLC9A1 | 0.41 | 1.34 | inactive
MTFMT (mitochondrial methionyl-tRNA formyltransferase) | 0.59 | 0.87 | inactive
LRRC39 (leucine rich repeat containing 39) | 0.59 | -0.06 | active
NKX2-8 (NK2 homeobox 8) | 0.71 | 0.8 | inactive
HIGD1B (HIG1 hypoxia inducible domain family member 1B) | 0.8 | 0.86 | inactive
TMX3 (thioredoxin related transmembrane protein 3) | 0.63 | 0.82 | inactive
CDC37P1 (cell division cycle 37 pseudogene 1) | 1.15 | 0.84 | inactive
BMPER (BMP binding endothelial regulator) | 0.04 | 1.12 | inactive
SERPINF2 (serpin family F member 2) | 0.62 | 1.68 | inactive
TRPV1 | 0.59 | 0.92 | inactive
CRYZ (crystallin zeta) | 0.68 | 0.76 | inactive
TEX55 (testis expressed 55) | 0.66 | 1.27 | inactive
MSH6 (mutS homolog 6) | 0.69 | 0.97 | inactive
MED23 (mediator complex subunit 23) | 0.55 | 0.88 | inactive
ISL1 (ISL LIM homeobox 1) | 0.74 | 0.86 | inactive
SERPINB11 (serpin family B member 11) | 0.59 | 0.91 | inactive
NFE2L3 (NFE2 like bZIP transcription factor 3) | 0.48 | 1.12 | inactive
PRAM1 (PML-RARA regulated adaptor molecule 1) | 0.44 | 1.86 | inactive
ELAVL4 (ELAV like RNA binding protein 4) | 0.52 | 0.44 | active
DHX29 (DExH-box helicase 29) | 0.53 | 1.65 | inactive
TMEM161B (transmembrane protein 161B) | 0.97 | 0.41 | inactive
EYA1 (EYA transcriptional coactivator and phosphatase 1) | 0.61 | 1.04 | inactive
RNF7 (ring finger protein 7) | 1.02 | 0.94 | inactive
CACNB1 (calcium voltage-gated channel auxiliary subunit beta 1) | 0.16 | 0.46 | active
KDM6B (lysine demethylase 6B) | 0.08 | 1.24 | inactive
ZBTB25 (zinc finger and BTB domain containing 25) | 0.65 | 1.29 | inactive
CASP9 (caspase 9) | 0.44 | 1.08 | inactive
DNAJC8 (DnaJ heat shock protein family (Hsp40) member C8) | 0.44 | 0.94 | inactive
OR4N5 (olfactory receptor family 4 subfamily N member 5) | 0.53 | 0.92 | inactive

Looked up above.
Entry for SNRNP25 (small nuclear ribonucleoprotein U11/U12 subunit 25) under “Call”: inactive
Value of GFI1B (growth factor independent 1B transcriptional repressor) in “cell gain with vemurafenib”: 0.57
LCTL (lactase like), lactate per cell with vemurafenib = 1.13
EYA1 (EYA transcriptional coactivator and phosphatase 1), lactate per cell with vemurafenib = 1.04
NAT2 (N-acetyltransferase 2), lactate per cell with vemurafenib: 0.87
